Experimental findings from PubChem BioAssay AID1487 (National Center for Advancing Translational Sciences (NCATS), 2009) are described below.

The nature of the experiment: qHTS Assay for Modulators of Lamin A Splicing. The note with it: HeLa LMNA splicing GFP/RFP minigene ratio, 48 h. Summed up: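 S3 HeLa cells stably expressing lamin A-EGFP splicing minigene plus DsRed2, 600 cells/well, 48 h compound exposure at 37C. Laser-scanning cytometry; analysed as GFP (500-530 nm)/RFP (575-640 nm) total intensity ratio; 0.5% DMSO vehicle.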
In general terms: qHTS replaces the single test concentration by a dilution series.

Where [1] appears, read: measured here: GFP splicing reporter channel.
Where [2] appears, read: measured here: RFP viability control channel.

Where “and” joins values, the source holds several entries; their conditions need not be identical. Equal entries are not always repeated. This is one part of the list. These are further read-outs of the screen, such as a control signal, another cell line or another target. No call is given for them. Most of these compounds were active or inconclusive in the main read-out, so they are no random draw. Potencies come from curve fits of mixed quality, noted in brackets.

Regarding `CCc1ccc(-n2nc(C)c3c(C(=O)NCCc4ccc(OC)c(OC)c4)cc(C)nc32)cc1`, the AC50 (usually the concentration giving half of the maximal activity seen) under setting [1] is 12.6 µM [falling, partial curve, poor fit] and the AC50 under setting [2] was 0.398 µM [falling, partial curve, poor fit].

Turning to `COc1ccc(CNC(=O)/C=C/c2ccc3[nH]cc(CCN(C)C)c3c2)cc1`, the AC50 under setting [2] was 6.31 µM [rising, single point].

For `Cc1ccc(Cl)cc1Nc1nn2c(=O)c3ccc(C(=O)NCc4cccs4)cc3nc2s1`, the AC50 is, setting by setting: under setting [1], 10 µM [falling, partial curve]; under setting [2], 7.08 µM [falling, partial curve].

Turning to `CCCCn1c(O)c(C(CC)=Nc2ccc(OCC)cc2)c(=O)[nH]c1=O`, the AC50 under setting [2] is 35.5 µM [rising, single point].

As for `CCCCC(=O)N/N=C/c1c(O)n(CC)c(=S)n(CC)c1=O`, the AC50 under setting [1] was 31.6 µM [rising, single point] and the AC50 under setting [2] was 31.6 µM [rising, single point].

Turning to `COc1cccc(C2(C#N)CCN(C)CC2)c1`, the AC50 under setting [1] was 0.1 µM [rising, full curve, poor fit].

Regarding `Cc1cccc(-n2c(O)c(/C=C/C=Nc3ccccc3)c(=O)[nH]c2=O)c1`, the AC50 was 10 µM [falling, partial curve, poor fit] under setting [1] and 10 µM [falling, partial curve] under setting [2].

Turning to `C/C=C/C(=O)OCC(=O)Nc1ccc(OC)c(Cl)c1`, under setting [2], the AC50 is 0.0158 µM [rising, full curve, poor fit].

On to `C=CC[n+]1c(-c2ccc(C)cc2)csc1Nc1c(C)n(C)n(-c2ccccc2)c1=O`, for which the AC50 under setting [2] was 20 µM [rising, single point].

As for `CC/C(=C(\c1ccc(O)cc1)c1ccc(OCCN(C)C)cc1)c1ccccc1`, the AC50 was 17.8 µM [falling, partial curve, poor fit] under setting [1] and 31.6 µM [falling, partial curve, poor fit] under setting [2].

With `CC(=O)NC(Cc1ccc(N(CCCl)CCCl)cc1)C(=O)O` (stereo not drawn), the AC50 under setting [2] is 17.8 µM [rising, single point].

For the compound `Cc1ccccc1C(=O)Nc1ccc(C(=O)OCc2cc(=O)n3nc(C4CC4)sc3n2)cc1`, under setting [1], the AC50 is 2.82 µM [falling, full curve].

Regarding `COc1ccn(C)c(=O)c1C#N`, the concentration at half-maximal activity (AC50) runs as follows: under setting [1], 0.316 µM [falling, partial curve]; under setting [2], 1.78 µM [falling, partial curve, poor fit].

On to `CCOC(=O)C1CCN(/C=C2/C(=O)NC(=S)N(c3cccc(OC)c3)C2=O)CC1`, for which, under setting [1], the AC50 was 39.8 µM [rising, partial curve, poor fit].

As for `COc1ccc(-n2c(/C=C\c3ccccc3F)nc3ccccc3c2=O)c(OC)c1`, the AC50 under setting [2] is 17.8 µM [rising, partial curve, poor fit].

In the case of `Cc1cccc(-n2c(O)c(C=Nc3ccccc3N)c(=O)[nH]c2=O)c1`, under setting [2], the AC50 was 14.1 µM [rising, partial curve].

Regarding `CCOc1ccccc1-n1c(O)c(C=NCc2ccc3c(c2)OCO3)c(=O)[nH]c1=O`, under setting [2], the AC50 was 0.00562 µM [falling, full curve, poor fit].

Turning to `CCOC(=O)c1c(-n2c(C)cc(C=C3C(=O)NC(=S)NC3=O)c2C)sc2c1CCCC2`, the AC50 under setting [1] is 20 µM [falling, single point].

As for `COc1cc(C2c3cc4c(cc3C(OC(C)=O)[C@H]3COC(=O)C23)OCO4)cc(OC)c1OC` (stereo partly drawn), the AC50 by setting is: under setting [1], 794 nM [falling, full curve] and 112 nM [falling, full curve]; under setting [2], 891 nM [falling, full curve] and 56.2 nM [falling, full curve].

For the compound `O=Cc1cn(CCCOc2ccccc2)c2ccccc12`, the AC50 is, setting by setting: under setting [1], 12.6 µM [rising, partial curve, poor fit]; under setting [2], 35.5 µM [rising, single point].

Turning to `O=c1c(/C=N/N2CCOCC2)c(O)n(-c2ccccc2)c(=S)n1-c1ccccc1`, the AC50 under setting [2] is 0.00316 µM [rising, full curve, poor fit].

Take `CO[C@H]1CC=C2CCN3CCC4=C(CC(=O)OC4)[C@]23C1`: under setting [1], the AC50 was 0.0251 µM [rising, full curve, poor fit].

Take `c1ccc2sc(NC3=NCCN3)nc2c1`: the AC50 under setting [2] was 35.5 µM [rising, single point].

Regarding `NS(=O)(=O)c1ccc(N=Cc2c(O)n(C3CCCCC3)c(=O)n(C3CCCCC3)c2=O)cc1`, the AC50 reads like this: under setting [1], 22.4 µM [falling, partial curve]; under setting [2], 35.5 µM [falling, partial curve].

Regarding `CCN1C(=O)/C(=C/c2ccc(N(CC)CC)cc2OC)C(=O)NC1=S`, under setting [2], the AC50 is 17.8 µM [rising, partial curve].

In the case of `C[C@]12CCC(=O)C=C1CC[C@@H]1[C@@H]2C(=O)C[C@]2(C)C(=O)CC[C@@H]12`, the concentration at half-maximal activity (AC50) under setting [1] was 12.6 µM [falling, partial curve, poor fit].

Consider `COc1cc(C=C(C#N)C#N)cc(O)c1O`, for which, under setting [1], the concentration at half-maximal activity (AC50) is 35.5 µM [falling, single point].

As to `Cc1ccc(C)c(NS(=O)(=O)c2ccc(OCC(=O)NCc3cccnc3)cc2)c1`, under setting [2], the AC50 was 7.08 µM [rising, full curve, poor fit].

In the case of `CN(C)C(=O)C(CCN1CCC(O)(c2ccc(Cl)cc2)CC1)(c1ccccc1)c1ccccc1`, the half-maximal activity concentration (AC50) under setting [2] is 11.2 µM [falling, partial curve] and 17.8 µM [rising, partial curve] and 3.55 µM [rising, full curve, poor fit].

As to `CC(C)[C@@]1(NC(=O)[C@@H]2C[C@@H]3c4cccc5[nH]cc(c45)C[C@H]3N(C)C2)O[C@@]2(O)C3CCCN3C(=O)[C@H](Cc3ccccc3)N2C1=O` (stereo partly drawn), the half-maximal activity concentration (AC50) is 6.31 µM [falling, full curve, poor fit] under setting [1] and 6.31 µM [falling, full curve, poor fit] under setting [2].

`C/C=C1/CC(C)C(C)(O)C(=O)OCC2CCN3CCC(OC1=O)C23` (stereo not drawn): the AC50 under setting [1] is 0.141 µM [rising, full curve, poor fit].

Consider `COP(=O)(OC)c1nc(-c2cccc3ccccc23)oc1NCCc1ccccc1`, for which the AC50 under setting [2] was 11.2 µM [rising, single point].

Consider `CCOC(=O)C1(CCCc2ccccc2)CCN(C2CCCC2)CC1`, for which, under setting [2], the concentration at half-maximal activity (AC50) is 11.2 µM [rising, partial curve].
